# Test results reported in article PMC7348807.
# System: thrombin
# Experiment: binding assay
# Conditions: earlier estimate for the same aptamer-thrombin system; PBS with 0.02% sodium azide and 1 mg/mL BSA; incubation 2 h (50 pM, 1 nM FA) or 6.5 h (10 pM FA); thrombin 5 pM to 1 uM; pH and temperature not stated; commercial protein; label: 5' Alexa Fluor 647; folded or branched DNA
sequence,measurement,value
AGTCCGTGGTAGGGCAGGTTGGGGTGACT,pKd,9.30

# pKd: −log10 of the molar value. Construct, isoform or probe ends are uncertain for at least one entry.
